These are yes or no findings as the source states them, for the method shown. Binding seen in cells or lysates may run through a third protein. Some entries that bind do so weakly or less than the wild type. Where a sequence is shown, tags or fusion partners need not be part of it.
Target: T1, FLAG-ULK1 (mouse) (UniProt O70405)
T1 sequence: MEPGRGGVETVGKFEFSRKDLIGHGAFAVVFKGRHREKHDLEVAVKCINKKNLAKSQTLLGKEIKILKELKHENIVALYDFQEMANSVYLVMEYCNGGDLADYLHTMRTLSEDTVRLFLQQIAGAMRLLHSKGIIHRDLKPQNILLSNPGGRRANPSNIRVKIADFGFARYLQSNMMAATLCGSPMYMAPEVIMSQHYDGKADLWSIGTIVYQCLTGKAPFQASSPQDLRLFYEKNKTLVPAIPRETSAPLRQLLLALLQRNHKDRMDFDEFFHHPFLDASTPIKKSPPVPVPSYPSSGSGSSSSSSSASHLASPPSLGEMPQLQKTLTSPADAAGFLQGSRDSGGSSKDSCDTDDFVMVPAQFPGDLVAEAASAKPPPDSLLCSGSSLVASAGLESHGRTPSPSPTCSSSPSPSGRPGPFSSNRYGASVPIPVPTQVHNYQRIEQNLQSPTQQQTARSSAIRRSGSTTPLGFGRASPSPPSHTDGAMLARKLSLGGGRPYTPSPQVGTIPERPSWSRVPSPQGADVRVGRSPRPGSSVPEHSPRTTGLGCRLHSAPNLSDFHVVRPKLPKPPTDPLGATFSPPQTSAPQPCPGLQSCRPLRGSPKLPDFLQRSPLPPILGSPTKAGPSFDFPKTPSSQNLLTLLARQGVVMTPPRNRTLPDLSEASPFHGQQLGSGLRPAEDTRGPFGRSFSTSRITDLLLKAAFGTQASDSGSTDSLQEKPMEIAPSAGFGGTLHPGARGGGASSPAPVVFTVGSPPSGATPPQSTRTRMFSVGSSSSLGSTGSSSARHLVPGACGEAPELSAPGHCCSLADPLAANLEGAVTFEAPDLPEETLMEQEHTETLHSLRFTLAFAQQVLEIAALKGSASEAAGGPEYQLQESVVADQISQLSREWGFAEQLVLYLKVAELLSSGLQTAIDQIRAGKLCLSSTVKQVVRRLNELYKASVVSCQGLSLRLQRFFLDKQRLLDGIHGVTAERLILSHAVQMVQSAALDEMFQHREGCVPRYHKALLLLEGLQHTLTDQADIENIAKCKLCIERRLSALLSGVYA
Experiment: co-IP; FLAG-ULK1 co-expressed with FIP200 and Atg13 in HEK293T; purified from clarified lysate on anti-FLAG M2 affinity gel, eluted with 1 mg/ml FLAG peptide

Sequences of proteins named here, by UniProt entry; tags and fusion partners are left off.
UniProt Q8TDY2: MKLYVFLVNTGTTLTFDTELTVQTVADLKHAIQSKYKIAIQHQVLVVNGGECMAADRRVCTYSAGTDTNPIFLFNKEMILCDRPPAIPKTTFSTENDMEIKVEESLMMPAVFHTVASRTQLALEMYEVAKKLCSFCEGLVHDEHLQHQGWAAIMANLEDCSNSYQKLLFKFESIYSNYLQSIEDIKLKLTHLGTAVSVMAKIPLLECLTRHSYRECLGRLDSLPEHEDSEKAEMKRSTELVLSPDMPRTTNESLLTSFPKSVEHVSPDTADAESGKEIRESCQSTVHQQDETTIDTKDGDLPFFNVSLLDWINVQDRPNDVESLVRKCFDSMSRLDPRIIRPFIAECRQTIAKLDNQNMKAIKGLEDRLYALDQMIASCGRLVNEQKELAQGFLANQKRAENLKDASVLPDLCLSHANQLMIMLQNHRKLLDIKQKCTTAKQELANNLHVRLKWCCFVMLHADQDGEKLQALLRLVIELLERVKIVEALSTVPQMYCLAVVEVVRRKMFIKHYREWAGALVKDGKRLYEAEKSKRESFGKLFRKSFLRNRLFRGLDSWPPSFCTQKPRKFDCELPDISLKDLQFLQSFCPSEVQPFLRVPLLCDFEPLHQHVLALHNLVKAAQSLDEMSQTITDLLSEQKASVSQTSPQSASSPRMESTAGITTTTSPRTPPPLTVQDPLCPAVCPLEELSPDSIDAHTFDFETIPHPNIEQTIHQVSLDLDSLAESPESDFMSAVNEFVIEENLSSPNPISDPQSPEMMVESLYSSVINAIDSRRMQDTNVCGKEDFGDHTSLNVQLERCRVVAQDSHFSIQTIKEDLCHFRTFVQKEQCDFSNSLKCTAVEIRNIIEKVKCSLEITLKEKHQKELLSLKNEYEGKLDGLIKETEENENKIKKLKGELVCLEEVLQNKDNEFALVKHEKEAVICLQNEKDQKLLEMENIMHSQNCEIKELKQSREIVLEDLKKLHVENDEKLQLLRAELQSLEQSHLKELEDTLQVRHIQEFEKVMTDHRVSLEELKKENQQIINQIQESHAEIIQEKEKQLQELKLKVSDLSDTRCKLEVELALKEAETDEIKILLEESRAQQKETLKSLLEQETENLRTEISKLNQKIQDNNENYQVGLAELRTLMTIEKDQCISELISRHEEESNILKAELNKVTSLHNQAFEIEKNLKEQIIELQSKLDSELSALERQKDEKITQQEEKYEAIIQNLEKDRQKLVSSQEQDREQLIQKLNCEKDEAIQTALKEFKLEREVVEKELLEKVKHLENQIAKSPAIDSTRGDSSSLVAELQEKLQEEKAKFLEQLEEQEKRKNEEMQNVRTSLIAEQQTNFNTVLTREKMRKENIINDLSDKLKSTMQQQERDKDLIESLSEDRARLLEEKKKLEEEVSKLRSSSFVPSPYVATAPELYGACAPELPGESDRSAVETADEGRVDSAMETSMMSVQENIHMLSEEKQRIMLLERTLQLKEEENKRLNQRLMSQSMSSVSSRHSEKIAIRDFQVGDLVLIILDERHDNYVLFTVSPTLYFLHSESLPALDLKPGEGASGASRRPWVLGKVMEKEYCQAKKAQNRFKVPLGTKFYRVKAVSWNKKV

binding: binds
Substance: FIP200 (from UniProt Q8TDY2 1-1594)

From paper PMC5603566
